For at least one entry, the source does not settle the construct or the ends of the probe. At least one verdict rests on a figure or table, not on a statement of the authors.
Key:
[1] = biological target: Xrn1 Tail (Saccharomyces cerevisiae) (UniProt P22147); experiment: competition with a labelled probe; conditions: RNA outcompetes Kap120-Tail interaction dose-dependently; EMSA: 50 mM Tris-HCl pH 7.4, 150 mM NaCl, 2 mM DTT, 1 mM EDTA, 30 min at room temperature, 6% native PAGE in 0.5x TBE; native protein; protein details: GFP
[2] = biological target: Xrn1 ΔNLS2 (Saccharomyces cerevisiae) (UniProt P22147); experiment: competition with a labelled probe; conditions: 2 mM EDTA, RNA weakens Kap120 interaction; EMSA: 50 mM Tris-HCl pH 7.4, 150 mM NaCl, 2 mM DTT, 1 mM EDTA, 30 min at room temperature, 6% native PAGE in 0.5x …; native protein; protein details: FLAG

Sequences of proteins named here, by UniProt entry; tags and fusion partners are left off.
UniProt P22147, whole entry, stated change not applied: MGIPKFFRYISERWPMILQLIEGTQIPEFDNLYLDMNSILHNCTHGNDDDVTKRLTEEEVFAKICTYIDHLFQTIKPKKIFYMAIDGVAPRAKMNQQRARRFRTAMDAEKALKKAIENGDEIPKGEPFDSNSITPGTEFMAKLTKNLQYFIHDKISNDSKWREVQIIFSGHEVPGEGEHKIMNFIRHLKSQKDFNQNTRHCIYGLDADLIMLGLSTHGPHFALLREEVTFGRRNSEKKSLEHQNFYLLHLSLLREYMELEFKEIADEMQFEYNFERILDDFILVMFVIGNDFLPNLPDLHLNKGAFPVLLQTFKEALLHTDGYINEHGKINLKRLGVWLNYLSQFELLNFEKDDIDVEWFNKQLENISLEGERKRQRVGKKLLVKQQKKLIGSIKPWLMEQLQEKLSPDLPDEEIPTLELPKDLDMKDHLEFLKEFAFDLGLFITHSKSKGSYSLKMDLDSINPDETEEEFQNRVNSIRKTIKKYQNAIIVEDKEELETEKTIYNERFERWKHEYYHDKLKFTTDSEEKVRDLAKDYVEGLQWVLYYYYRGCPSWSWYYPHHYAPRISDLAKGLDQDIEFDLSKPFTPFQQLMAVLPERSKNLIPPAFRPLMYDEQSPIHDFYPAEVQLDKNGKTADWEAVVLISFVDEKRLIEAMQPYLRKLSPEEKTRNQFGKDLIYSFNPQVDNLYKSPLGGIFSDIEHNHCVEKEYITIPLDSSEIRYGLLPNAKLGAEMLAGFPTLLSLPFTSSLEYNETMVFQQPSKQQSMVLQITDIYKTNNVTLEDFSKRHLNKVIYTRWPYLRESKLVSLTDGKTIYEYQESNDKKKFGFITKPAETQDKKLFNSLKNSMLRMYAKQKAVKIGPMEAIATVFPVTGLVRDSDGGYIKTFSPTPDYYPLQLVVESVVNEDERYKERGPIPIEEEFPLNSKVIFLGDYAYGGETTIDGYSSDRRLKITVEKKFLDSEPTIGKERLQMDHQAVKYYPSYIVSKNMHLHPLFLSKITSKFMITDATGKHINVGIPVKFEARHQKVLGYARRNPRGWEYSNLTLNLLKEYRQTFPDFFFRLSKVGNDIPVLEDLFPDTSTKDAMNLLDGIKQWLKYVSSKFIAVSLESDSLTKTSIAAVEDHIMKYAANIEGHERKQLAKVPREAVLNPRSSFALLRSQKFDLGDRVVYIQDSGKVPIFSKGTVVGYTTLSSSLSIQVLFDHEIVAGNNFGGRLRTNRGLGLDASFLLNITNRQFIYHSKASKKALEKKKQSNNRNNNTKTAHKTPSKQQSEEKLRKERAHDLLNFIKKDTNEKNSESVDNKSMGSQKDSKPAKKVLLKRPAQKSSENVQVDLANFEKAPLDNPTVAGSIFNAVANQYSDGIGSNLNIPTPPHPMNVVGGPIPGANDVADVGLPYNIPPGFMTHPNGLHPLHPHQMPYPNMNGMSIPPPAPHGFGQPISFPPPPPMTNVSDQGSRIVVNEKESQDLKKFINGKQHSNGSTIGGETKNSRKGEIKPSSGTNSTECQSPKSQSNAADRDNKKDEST

## AUGUACAGUCCGACGAACACGGAGUCGACCCGCAACGCGA [40 nt RNA]
[1]
  binding result: binds
[2]
  binding result: binds

Source: paper PMC9684461, “RNA-controlled nucleocytoplasmic shuttling of mRNA decay factors regulates mRNA synthesis and a novel mRNA decay pathway” (Nature Communications, 2021)
